From the supplement of paper PMC5949888
Most values lie at the floor of the assay. Slopes are relative: functional sequences can read slightly below zero.

test system: Saccharomyces cerevisiae PS128 hsf1 delta, HSF1(1-493) fusion; assay: growth estimate (transactivation domain function in HSF1 fusion, heat-shock survival) (a.u. (slope of normalised read count over time)); higher = stronger growth at 37°C, i.e. more transactivation activity; conditions: library: random library
Experimental: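 Random 60-nt DNA library encoding peptides of up to 20 aa, fused to the C-terminus of yeast HSF1 residues 1-493 (C-terminal TAD deleted) and expressed from the native HSF1 promoter on a CEN plasmid in hsf1-deleted S. cerevisiae PS128. Cells were selected at 37°C on -trp 5-FOA plates for 0, 2, 4, 6 and 8 days and amplicons were sequenced. Growth estimate is the slope of a robust linear fit of total-sum-normalised read counts (normalised to the first time point) over time, using at least 2 replicates. Sequences are classed functional (TAD activity) above a threshold of -0.13, set from stop-codon control sequences.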

| Substance | growth estimate |
| --- | --- |
| CDRGRHLSQPTPFRIHMDAP | < -0.25 |
| CDSQAW | < -0.25 |
| CDVNVNYLVGYHK | < -0.25 |
| CEACVRYL | < -0.25 |
| CEEGM | < -0.25 |
| CEFKRVWPQGMCPCLPPVRS | -0.244 |
| CEFNVGNAHFASCVGVR | < -0.25 |
| CEICDVGYRARPIG | < -0.25 |
| CEIKCMTLLLHELRALITCG | < -0.25 |
| CEVHICSKQITGSILTVSLL | < -0.25 |
| CEVYVKLWVLSEQEQCRRFS | -0.245 |
| CEYRALRNIGSKSSDKSHVL | < -0.25 |
| CFGLLPIRSRGVKSRSKGIW | < -0.25 |
| CFGRRG | < -0.25 |
| CFGSRG | < -0.25 |
| CFSLLEGVLSAGTGRHMRAN | < -0.25 |
| CFSVRQLVGVPFPSVTGTAR | < -0.25 |
| CFVIPIGYFHGQI | < -0.25 |
| CFVLRIRRLSVQGATGSKRN | < -0.25 |
| CFVTIAGLITCFVTTQETFG | < -0.25 |
| CGAGSIHLSVHILQSPQGVP | < -0.25 |
| CGD | < -0.25 |
| CGDSLTLSPRAVMAPMVRSP | < -0.25 |
| CGDVRFDVPVVGHETWLVD | -0.246 |

Pulled one by one from the entries so far (three):

| Substance | growth estimate |
| --- | --- |
| CEVYVKLWVLSEQEQCRRFS | -0.245 |
| CFVLRIRRLSVQGATGSKRN | < -0.25 |
| CFSVRQLVGVPFPSVTGTAR | < -0.25 |

The listing continues.

| Substance | growth estimate |
| --- | --- |
| CGGCISDISG | < -0.25 |
| CGGGTSDVNGYAARGLRTDA | < -0.25 |
| CGGISRWQSVWQAFVVATG | < -0.25 |
| CGGSRDMALHLKEW | < -0.25 |
| CGGVMAGMGLGTGSHLCEL | < -0.25 |
| CGINLLHAGSPDVLAMKSFT | < -0.25 |
| CGKIRVI | < -0.25 |
| CGKKNPGRSFSVALGVPGRA | < -0.25 |
| CGLATRDGTFT | < -0.25 |
| CGLIDRAIINLPSRLTS | < -0.25 |
| CGLLSVGKGSPHGSRSLIAR | < -0.25 |
| CGLWIR | < -0.25 |
| CGN | < -0.25 |
| CGPMLWPRWPAGAPKGLPAV | < -0.25 |
| CGQPRLARGWCIVCPSGLHW | < -0.25 |
| CGQTLGVGTR | < -0.25 |
| CGRGGRAS | < -0.25 |
| CGRNSRQPSTWSDRVAGDSP | < -0.25 |
| CGRQ | < -0.25 |
| CGRRLGGVLAEAKSIGGIVL | -0.245 |
| CGRVWVYVGPTATDLPAGDP | < -0.25 |
| CGSGSVLGSDHTQGIQSYDS | -0.235 |
| CGSSSRTESKGLNYLTQPSL | < -0.25 |
| CGSWPDTNCQYLTRRELCPS | < -0.25 |

| Substance | growth estimate |
| --- | --- |
| CGTSNGA | < -0.25 |
| CGYVTPHQS | < -0.25 |
| CHAGVLRLVRQHWRGRPRHS | -0.226 |
| CHDCNGRWFFRLQKNPGPIQ | < -0.25 |
| CHMMIPV | < -0.25 |
| CHPGFLVESRLERSKVSRLI | < -0.25 |
| CHRVI | < -0.25 |
| CHVGS | < -0.25 |
| CHVSVHHVNLGTGGGCSMRQ | < -0.25 |
| CHYGYFG | < -0.25 |
| CIAGHAECSVEKARPGRETP | -0.205 |
| CICASTGYT | < -0.25 |
| CIDHPVR | < -0.25 |
| CIGGVLG | < -0.25 |
| CIIQWGPLRLRYLI | < -0.25 |
| CIKAERID | < -0.25 |
| CIKGPGGVTDTRDNS | < -0.25 |
| CIKLKPCP | < -0.25 |
| CILSHCNQVPVESLRLKRFK | < -0.25 |
| CIPCGAIRRPAASPSVHSKS | < -0.25 |
| CIPMHRDSNRSTKHISNSQP | < -0.25 |
| CIQPRKTIGVGLIRISHRAP | < -0.25 |
| CIRCSYRIPSGPGAIIQFSE | < -0.25 |
| CIRLELIKSGRRRIYSR | < -0.25 |

| Substance | growth estimate |
| --- | --- |
| CIRRDFQGTDKIASV | < -0.25 |
| CIRRDMRCHTSKTARRSRGD | < -0.25 |
| CIRTAVRALGNLVPMEKGWA | < -0.25 |
| CISEYDRLRSIPGYPGFPSI | < -0.25 |
| CISQV | < -0.25 |
| CISV | < -0.25 |
| CITRRKESVVRAFLYVITVA | < -0.25 |
| CIYEGQPRGRPTSGIHGVLT | < -0.25 |
| CKEMMCRARRDIDGKEIGLC | < -0.25 |
| CKFRGHLEHCLAPVYITQA | < -0.25 |
| CKGSGPRVTCRYTQTLYYRP | < -0.25 |
| CKGSLEKVYKFDRLKSALSD | < -0.25 |
| CKH | < -0.25 |
| CKHGDHILCRPRQ | < -0.25 |
| CKIG | < -0.25 |
| CKKAILCPIASAILEKRGGD | < -0.25 |
| CKLRGPRSGRPRARSTLLQF | -0.182 |
| CKPFVGPDPG | < -0.25 |
| CKQPQRACPTWKSAEAV | < -0.25 |
| CKRDTMSQAQPLLPPLLQRT | -0.247 |
| CKRLCGQVSSNTAGWFGE | < -0.25 |
| CKRNATRRTGITQRNRPGTN | < -0.25 |
| CKSP | < -0.25 |
| CKTLMGPCSPKGYVGSGAPV | -0.158 |

| Substance | growth estimate |
| --- | --- |
| CKW | < -0.25 |
| CLAVRCRVTKP | < -0.25 |
| CLDA | < -0.25 |
| CLERWIRGRKFAWMQCLETR | < -0.25 |
| CLESAGDDTSPWAPYQAATV | < -0.25 |
| CLEVLALNRHGAERMLRLTQ | < -0.25 |
| CLFIRRPMLNARGVIAACWA | -0.243 |
| CLFLGDRVVVRSRKPSGWLC | < -0.25 |
| CLFTESVTPMESSWYLGHIG | < -0.25 |
| CLGAPEKFSLA | < -0.25 |
| CLGARAIR | -0.25 |
| CLGRIVGSGTGGRYWRVCLV | < -0.25 |
| CLGSRAYGELRPIRE | < -0.25 |
| CLHTLWEIYWVAVEYTLGSV | < -0.25 |
| CLKSPLQRG | < -0.25 |
| CLLLGEDAKTRCTRCLTVSR | < -0.25 |
| CLLLQASCQQELLHRTPSSD | < -0.25 |
| CLPHTRAQ | < -0.25 |
| CLR | < -0.25 |
| CLRHGGSSGIVRRCGLSIS | < -0.25 |
| CLSARIHVGLSVLKTWVNAA | < -0.25 |
| CLSDAGHSAW | < -0.25 |
| CLSSAQTSRIPYRYI | < -0.25 |
| CLSYLPNRKIGRTGRVDSVP | < -0.25 |

| Substance | growth estimate |
| --- | --- |
| CLTQPTRAYVDILNVADSQH | < -0.25 |
| CLVIQAQKTIRC | < -0.25 |
| CLVR | < -0.25 |
| CLYDSRSCLG | < -0.25 |
| CLYSGLLPVGAV | < -0.25 |
| CMA | < -0.25 |
| CMILPMSIVEQKD | < -0.25 |
| CMINAAYASP | < -0.25 |
| CMLRYFSFSCILQLKYPFIV | < -0.25 |
| CMNRAWGITRARLVLFGSES | < -0.25 |
| CMV | < -0.25 |
| CNFLELRASLGARLRGTFW | < -0.25 |
| CNGPIDGPWQESR | < -0.25 |
| CNHTDRW | < -0.25 |
| CNIGN | < -0.25 |
| CNLAFHGVKRDGQWKRRRSK | < -0.25 |
| CNLDISRGVTLQLNVRSVCH | -0.205 |
| CNRGTVACLLLGEVASQ | < -0.25 |
| CNRRRWVTIRVCILGGFIRC | < -0.25 |
| CNRS | < -0.25 |
| CNSHGFWIRPFGLVSNGVDG | -0.198 |
| CNTLVSDRLSRTH | < -0.25 |
| CNWGP | < -0.25 |
| CNYLL | < -0.25 |

| Substance | growth estimate |
| --- | --- |
| CPAFKGSLDTKGVDIVLMYM | < -0.25 |
| CPDNFTQFGTGTTWDL | < -0.25 |
| CPFGNSWCRSTASGLSRSER | < -0.25 |
| CPFMSLVTLRGSKRPV | < -0.25 |
| CPGCKIAFHDFVLVI | < -0.25 |
| CPGGAVRIDSIGIGVIKADT | < -0.25 |
| CPGLYPKA | < -0.25 |
| CPITLCPCQWLTVQRGRLMM | < -0.25 |
| CPMGTVSQIKRQGTILYNHP | < -0.25 |
| CPNKGARHVQTAPLDGSRAL | < -0.25 |
| CPPRL | < -0.25 |
| CPRVRAKVMTSTRIDRVRVS | < -0.25 |
| CPSFAPTKSAGWL | < -0.25 |
| CPTRLL | < -0.25 |
| CPTRLRNI | < -0.25 |
| CPVEARLHQISRWAAEQTTI | < -0.25 |
| CPVYQLRGYNRGTRIPLLHI | < -0.25 |
| CPWLFCGTFNSGLM | < -0.25 |
| CPYTGLVIHGMQWTYLGG | < -0.25 |
| CQFCSNCK | < -0.25 |
| CQGHDCTSSFWTQNWVLEQL | < -0.25 |
| CQGLWEPCQYLPHVFEQPGN | -0.211 |
| CQGRPSSVCMSWVAVQ | < -0.25 |
| CQHPGC | < -0.25 |

A second format for some results above.
Substance | growth estimate
CPDNFTQFGTGTTWDL | < -0.25
CPFGNSWCRSTASGLSRSER | < -0.25
CPFMSLVTLRGSKRPV | < -0.25

Following part

| Substance | growth estimate |
| --- | --- |
| CQLILTTSTAPLKLVRILRL | -0.245 |
| CQM | < -0.25 |
| CQMCACPDIHCPN | < -0.25 |
| CQSALVRRQSRAMGYNIALP | < -0.25 |
| CQSCQH | < -0.25 |
| CQSIRGLGGMGKCWAACTFA | < -0.25 |
| CQSKCSGPSTTL | < -0.25 |
| CQSSWRSLGLVGNQV | < -0.25 |
| CQVDEEKSSVQ | < -0.25 |
| CQYLNSVA | < -0.25 |
| CRAEAVPLVHGELSPRVIVG | < -0.25 |
| CRALVALLTYNFAAIHEPS | < -0.25 |
| CRAPYCC | < -0.25 |
| CRAVWQPMC | < -0.25 |
| CRCPEA | < -0.25 |
| CRDRSVGAN | < -0.25 |
| CRESRTHEGRGRLVRRAPIL | < -0.25 |
| CRESTSTLREPIASSASFFA | < -0.25 |
| CRFQHS | < -0.25 |
| CRGAYNEPQEFCLYSIFAIE | < -0.25 |
| CRGCVTNGRKKRMVMCHPEQ | < -0.25 |
| CRGFIRMQWGARGPHFLHRP | < -0.25 |
| CRI | < -0.25 |
